Experimental data from PMC7286819.
These are yes or no findings as the source states them, for the method shown. In cells and extracts the contact can be indirect. Some results given as binding are weak or reduced against the parent protein; the word gives no strength. For some of these results: Sequences can lack the tags named with a protein. Each block holds one substance with its values, some of them ahead of it.

Chains of the proteins cited; added tags and fusions are not shown. Lines headed by an entry give the natural chain unless they say otherwise; changes in a name come on top. Residues count along the entry.
UniProt Q9NRC8: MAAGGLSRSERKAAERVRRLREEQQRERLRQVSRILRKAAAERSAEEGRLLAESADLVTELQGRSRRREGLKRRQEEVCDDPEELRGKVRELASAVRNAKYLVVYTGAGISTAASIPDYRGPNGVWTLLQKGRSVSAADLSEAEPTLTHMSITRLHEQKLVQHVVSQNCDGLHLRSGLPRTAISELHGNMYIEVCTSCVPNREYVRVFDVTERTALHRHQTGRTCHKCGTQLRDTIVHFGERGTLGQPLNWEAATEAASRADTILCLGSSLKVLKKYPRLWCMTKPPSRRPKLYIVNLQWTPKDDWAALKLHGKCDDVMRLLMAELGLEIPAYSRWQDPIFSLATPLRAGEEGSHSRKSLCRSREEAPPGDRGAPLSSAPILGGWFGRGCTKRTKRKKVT
GST-SIRT7 N terminus (1-89 aa): residues 1-89 of Q9NRC8
GST-SIRT7 C terminus (332-400 aa): residues 332-400 of Q9NRC8
UniProt Q00987: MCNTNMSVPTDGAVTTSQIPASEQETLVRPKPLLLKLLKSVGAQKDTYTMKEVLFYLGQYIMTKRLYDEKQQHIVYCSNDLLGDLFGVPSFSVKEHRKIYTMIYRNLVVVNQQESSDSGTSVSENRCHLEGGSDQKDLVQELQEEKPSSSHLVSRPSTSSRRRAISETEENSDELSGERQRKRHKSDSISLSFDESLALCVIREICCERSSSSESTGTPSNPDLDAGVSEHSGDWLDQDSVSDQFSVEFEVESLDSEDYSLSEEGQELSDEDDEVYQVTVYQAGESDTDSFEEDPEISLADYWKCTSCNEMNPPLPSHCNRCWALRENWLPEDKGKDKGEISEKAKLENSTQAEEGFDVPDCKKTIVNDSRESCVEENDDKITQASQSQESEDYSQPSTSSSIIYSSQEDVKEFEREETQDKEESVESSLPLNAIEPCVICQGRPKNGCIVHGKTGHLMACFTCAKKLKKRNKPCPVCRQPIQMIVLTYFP

Legend:
[1] = molecular target: GST-SIRT7 N terminus (1-89 aa) (UniProt Q9NRC8); assay: pull-down; GST-fusion proteins on glutathione-Sepharose 4B beads incubated with lysates of HCT116 cells transfected with FLAG-PCAF or FLAG-SIRT7 at 4 C overnight; washed with TEN buffer (0.5% NP-40, 20 mM Tris pH 7.4, 0.1 mM EDTA, 300 mM NaCl); immunoblot; only the target purified
[2] = molecular target: GST-SIRT7 C terminus (332-400 aa) (UniProt Q9NRC8); assay: as above
[3] = molecular target: p300/CBP-associated factor (PCAF), endogenous (human (endogenous in HCT116 and U2OS)) (UniProt Q92831); assay: co-IP; HCT116 transfected with the indicated plasmids, with or without glucose deprivation for 12 h; lysates immunoprecipitated with anti-PCAF antibody; immunoblot
[4] = molecular target: T1, GST-PCAF N terminus (1-351 aa) (UniProt Q92831); assay: pull-down; GST-fusion proteins on glutathione-Sepharose 4B beads incubated with lysates of HCT116 cells transfected with FLAG-PCAF or FLAG-SIRT7 at 4 C overnight; washed with TEN buffer (0.5% NP-40, 20 mM Tris pH 7.4, 0.1 mM EDTA, 300 mM NaCl); immunoblot; only the target purified
T1 sequence: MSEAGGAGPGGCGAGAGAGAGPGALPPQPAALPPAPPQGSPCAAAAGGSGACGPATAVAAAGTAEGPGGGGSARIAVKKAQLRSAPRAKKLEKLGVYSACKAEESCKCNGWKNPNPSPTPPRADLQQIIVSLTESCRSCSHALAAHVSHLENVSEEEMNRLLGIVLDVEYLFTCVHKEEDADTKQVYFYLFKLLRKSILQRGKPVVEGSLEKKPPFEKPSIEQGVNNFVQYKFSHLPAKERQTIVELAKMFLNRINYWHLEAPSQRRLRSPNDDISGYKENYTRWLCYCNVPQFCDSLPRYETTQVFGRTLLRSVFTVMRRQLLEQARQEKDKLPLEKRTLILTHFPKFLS

[5] = molecular target: T2, GST-PCAF bromo domain (652-833 aa) (UniProt Q92831); assay: as above
T2 sequence: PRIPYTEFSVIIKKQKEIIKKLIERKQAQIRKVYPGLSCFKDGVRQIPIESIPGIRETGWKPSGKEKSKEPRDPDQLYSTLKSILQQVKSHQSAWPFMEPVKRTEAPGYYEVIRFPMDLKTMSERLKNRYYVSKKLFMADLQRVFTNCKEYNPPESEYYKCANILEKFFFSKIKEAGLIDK

FLAG-PCAF (K720R) [6] = molecular target: T3, FLAG-PCAF (K720R) (UniProt Q92831); assay: co-IP; HCT116 transfected with FLAG-tagged plasmids; lysates immunoprecipitated with FLAG-conjugated M2 beads; immunoblot; for PCAF-MDM2 cells treated with 10 uM MG132, with or without SIRT7 knock-down (shSIRT7, si-SIRT7) and glucose deprivation for 12 h
T3 sequence: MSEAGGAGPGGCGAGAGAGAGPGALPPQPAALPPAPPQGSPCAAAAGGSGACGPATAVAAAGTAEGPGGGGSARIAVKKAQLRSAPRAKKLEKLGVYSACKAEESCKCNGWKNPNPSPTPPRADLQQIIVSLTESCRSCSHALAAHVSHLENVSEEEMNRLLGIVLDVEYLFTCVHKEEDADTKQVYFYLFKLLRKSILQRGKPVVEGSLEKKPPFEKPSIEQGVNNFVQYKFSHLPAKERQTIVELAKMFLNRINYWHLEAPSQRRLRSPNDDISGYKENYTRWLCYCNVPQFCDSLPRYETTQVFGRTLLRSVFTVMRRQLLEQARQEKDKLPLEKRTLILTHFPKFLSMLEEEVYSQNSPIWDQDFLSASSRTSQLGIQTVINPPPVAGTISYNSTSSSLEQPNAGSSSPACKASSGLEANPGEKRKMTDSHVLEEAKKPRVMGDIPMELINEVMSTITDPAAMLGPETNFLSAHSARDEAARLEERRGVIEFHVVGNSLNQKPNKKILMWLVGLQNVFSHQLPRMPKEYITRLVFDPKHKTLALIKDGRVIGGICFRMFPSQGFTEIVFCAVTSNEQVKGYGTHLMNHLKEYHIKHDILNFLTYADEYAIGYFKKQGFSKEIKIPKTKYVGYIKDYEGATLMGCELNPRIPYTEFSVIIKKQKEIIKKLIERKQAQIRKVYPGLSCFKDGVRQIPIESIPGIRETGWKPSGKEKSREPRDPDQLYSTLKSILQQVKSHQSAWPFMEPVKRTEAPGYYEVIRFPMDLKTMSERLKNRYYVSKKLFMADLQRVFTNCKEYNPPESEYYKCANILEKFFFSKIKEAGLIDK

FLAG-PCAF [7] = molecular target: FLAG-PCAF (UniProt Q92831); assay: as above
FLAG-PCAF (K720R) [8] = molecular target: T3, FLAG-PCAF (K720R); assay: co-IP; U2OS cells, PCAF (WT) or mutants (Fig. S6E); legend not shown
FLAG-PCAF [9] = molecular target: FLAG-PCAF (UniProt Q92831); assay: as above
[10] = molecular target: p300/CBP-associated factor (PCAF), endogenous (human (endogenous in HCT116 and U2OS)) (UniProt Q92831); assay: co-IP; endogenous proteins, HCT116 lysates; immunoprecipitation with anti-IgG, anti-SIRT7 or anti-PCAF antibody, protein G/A-agarose; lysis buffer 1% NP-40, 20 mM Tris-HCl pH 8.0, 137 mM NaCl, 10% glycerol, 2 mM EDTA; immunoblot
[11] = molecular target: p300/CBP-associated factor (PCAF), endogenous (human (endogenous in HCT116 and U2OS)) (UniProt Q92831); assay: co-IP; endogenous proteins, U2OS cells, SIRT7 and PCAF antibodies (Fig. S4B, C)
[12] = molecular target: Murine double minute (MDM2), endogenous (human (endogenous in HCT116 and U2OS)) (UniProt Q00987); assay: co-IP; HCT116 transfected with SIRT7 plasmids (WT, SA/HY) or empty vector, 10 uM MG132 for 8 h; lysates immunoprecipitated with anti-MDM2 antibody; immunoblot
FLAG-SIRT7 = FLAG-SIRT7 (UniProt Q9NRC8); assay: co-IP; HCT116 transfected with FLAG-tagged plasmids; lysates immunoprecipitated with FLAG-conjugated M2 beads; immunoblot; for PCAF-MDM2 cells treated with 10 uM MG132, with or without SIRT7 knock-down (shSIRT7, si-SIRT7) and glucose deprivation for 12 h
[13] = molecular target: Sirtuin 7 (SIRT7), endogenous (human (endogenous in HCT116 and U2OS)) (UniProt Q9NRC8); assay: co-IP; endogenous proteins, HCT116 lysates; immunoprecipitation with anti-IgG, anti-SIRT7 or anti-PCAF antibody, protein G/A-agarose; lysis buffer 1% NP-40, 20 mM Tris-HCl pH 8.0, 137 mM NaCl, 10% glycerol, 2 mM EDTA; immunoblot
[14] = molecular target: Sirtuin 7 (SIRT7), endogenous (human (endogenous in HCT116 and U2OS)) (UniProt Q9NRC8); assay: co-IP; endogenous proteins, U2OS cells, SIRT7 and PCAF antibodies (Fig. S4B, C)

binding [1]: binds
binding [2]: binds
Substance: FLAG-PCAF (from UniProt Q92831 1-832)

binding [3]: binds
binding [4]: binds
binding [5]: binds
Substance: FLAG-SIRT7 (from UniProt Q9NRC8 1-400)

binding (FLAG-PCAF (K720R) [6]): binds
binding (FLAG-PCAF [7]): binds
binding (FLAG-PCAF (K720R) [8]): binds
binding (FLAG-PCAF [9]): binds
Substance: Murine double minute (MDM2), endogenous (from UniProt Q00987 1-491)

binding (FLAG-PCAF [7]): binds
binding [10]: binds
binding [11]: binds
Substance: Sirtuin 7 (SIRT7), endogenous (from UniProt Q9NRC8 1-400)

binding [12]: binds
binding (FLAG-SIRT7): binds
binding [13]: binds
binding [14]: binds
Substance: p300/CBP-associated factor (PCAF), endogenous (from UniProt Q92831 1-832)
